From PMC11376556

By UniProt entry, the sequences of proteins in these tests, tags left out.
UniProt P15864: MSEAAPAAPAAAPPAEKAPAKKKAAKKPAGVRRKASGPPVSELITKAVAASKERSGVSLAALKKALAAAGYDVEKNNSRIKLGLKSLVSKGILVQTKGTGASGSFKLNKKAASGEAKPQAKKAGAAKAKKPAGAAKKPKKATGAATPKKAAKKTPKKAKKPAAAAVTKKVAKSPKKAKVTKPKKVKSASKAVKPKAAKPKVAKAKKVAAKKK
UniProt P09874: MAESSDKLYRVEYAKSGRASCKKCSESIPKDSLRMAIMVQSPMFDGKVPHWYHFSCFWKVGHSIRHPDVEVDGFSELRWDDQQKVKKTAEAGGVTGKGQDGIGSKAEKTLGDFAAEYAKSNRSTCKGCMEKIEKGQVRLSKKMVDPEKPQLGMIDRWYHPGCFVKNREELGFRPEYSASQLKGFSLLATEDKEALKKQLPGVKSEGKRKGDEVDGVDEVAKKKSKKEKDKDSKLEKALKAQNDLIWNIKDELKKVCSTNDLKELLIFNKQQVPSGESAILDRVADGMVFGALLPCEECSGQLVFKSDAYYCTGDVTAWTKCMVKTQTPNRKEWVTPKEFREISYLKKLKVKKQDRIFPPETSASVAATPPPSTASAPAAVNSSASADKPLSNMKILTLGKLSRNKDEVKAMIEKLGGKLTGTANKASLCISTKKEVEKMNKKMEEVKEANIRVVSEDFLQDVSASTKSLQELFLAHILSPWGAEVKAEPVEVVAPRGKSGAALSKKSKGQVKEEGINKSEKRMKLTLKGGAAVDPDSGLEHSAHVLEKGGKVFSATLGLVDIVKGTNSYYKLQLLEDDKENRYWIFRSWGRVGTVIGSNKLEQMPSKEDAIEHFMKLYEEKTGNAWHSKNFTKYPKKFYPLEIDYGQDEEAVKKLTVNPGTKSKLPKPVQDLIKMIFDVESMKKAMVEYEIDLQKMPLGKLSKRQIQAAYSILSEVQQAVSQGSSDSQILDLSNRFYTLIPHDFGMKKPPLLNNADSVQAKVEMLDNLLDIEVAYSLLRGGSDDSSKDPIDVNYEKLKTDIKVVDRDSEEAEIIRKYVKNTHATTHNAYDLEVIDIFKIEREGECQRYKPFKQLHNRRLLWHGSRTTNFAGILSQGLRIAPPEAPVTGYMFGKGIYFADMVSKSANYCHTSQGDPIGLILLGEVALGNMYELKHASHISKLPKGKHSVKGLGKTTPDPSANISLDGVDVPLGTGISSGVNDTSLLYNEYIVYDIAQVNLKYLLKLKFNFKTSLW

Biological target: GFP-tagged histone H1.2 (mouse HIST1H1C cDNA in pEGFP-N1) (mouse) (UniProt P15864)
Assay: affinity purification with mass spectrometry; GFP-tagged H1.2 expressed in HEK293T cells; lysate on anti-GFP beads; eluate separated by 12% SDS-PAGE, trypsin digest, LC-MS/MS; 451 proteins identified

Substance: PARP1, endogenous in HEK293T cells (from UniProt P09874 1-1014) (enzyme)
- binding: binds

No constants are given. Whether binding was seen depends on the method and setting. Binding seen in cells or lysates may run through a third protein. A yes stands for co-enrichment or nearness to the bait. Other partners may have been found.
